The list shows a part of the results.
Experiments:
Test in all cases: log2 fold change, soluble protein after heating vs DMSO (PISA); higher = thermal stabilisation; K562 cells, 10 uM, 30 min; active = over 0.2 and 3.5 SD of the protein, either way, in both replicates (recomputed)
[1] = compound: CC[C@@H]1C(=O)N(C)c2cnc(Nc3ccc(C(=O)NC4CCN(C)CC4)cc3OC)nc2N1C1CCCC1
Procedure, shortened: (§1)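 K562 cells (2×10^6 cells/mL) were treated with 10 μM compound for 30 min, and aliquots were heated for 3 min over 48°C-58°C. Pooled aliquots were extracted in PBS with 0.5% NP-40 at 4°C, and the supernatant after 21,000xg for 90 min was measured by TMTpro 16plex LC-MS/MS with channel sums equalised. Reported thermal stability, relative to control samples and from duplicates, is a log2 fold change.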

Sequences of proteins named here, by UniProt entry; tags and fusion partners are left off. A change or cut given only in a name is not applied to a line headed by its entry.
UniProt Q05048: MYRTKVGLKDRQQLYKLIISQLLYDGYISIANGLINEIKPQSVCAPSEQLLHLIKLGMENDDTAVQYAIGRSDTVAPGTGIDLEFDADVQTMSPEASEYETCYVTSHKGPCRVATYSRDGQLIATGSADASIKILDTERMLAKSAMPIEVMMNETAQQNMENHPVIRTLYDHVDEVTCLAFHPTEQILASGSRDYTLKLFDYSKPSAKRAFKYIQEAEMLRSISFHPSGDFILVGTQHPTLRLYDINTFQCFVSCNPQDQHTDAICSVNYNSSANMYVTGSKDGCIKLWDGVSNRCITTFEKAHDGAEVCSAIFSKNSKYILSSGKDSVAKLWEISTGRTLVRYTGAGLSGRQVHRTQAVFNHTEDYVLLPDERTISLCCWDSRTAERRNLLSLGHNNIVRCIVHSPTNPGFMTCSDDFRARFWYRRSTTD
UniProt O43310: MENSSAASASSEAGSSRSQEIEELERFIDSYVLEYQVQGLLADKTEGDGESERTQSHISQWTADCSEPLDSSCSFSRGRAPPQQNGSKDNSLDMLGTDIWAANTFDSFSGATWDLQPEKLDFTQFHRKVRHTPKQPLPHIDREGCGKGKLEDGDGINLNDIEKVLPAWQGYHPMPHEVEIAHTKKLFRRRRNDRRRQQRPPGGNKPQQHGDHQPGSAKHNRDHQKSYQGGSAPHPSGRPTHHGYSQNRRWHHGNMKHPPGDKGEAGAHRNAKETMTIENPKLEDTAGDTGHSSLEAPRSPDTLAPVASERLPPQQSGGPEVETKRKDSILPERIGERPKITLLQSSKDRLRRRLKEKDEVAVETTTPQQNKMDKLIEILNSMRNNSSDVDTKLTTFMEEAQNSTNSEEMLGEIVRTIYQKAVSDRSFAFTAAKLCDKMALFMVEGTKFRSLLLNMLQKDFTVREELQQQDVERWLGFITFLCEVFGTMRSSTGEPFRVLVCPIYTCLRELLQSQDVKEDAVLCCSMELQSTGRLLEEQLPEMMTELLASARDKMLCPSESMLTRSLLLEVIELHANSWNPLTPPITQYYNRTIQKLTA
UniProt Q7L1T6: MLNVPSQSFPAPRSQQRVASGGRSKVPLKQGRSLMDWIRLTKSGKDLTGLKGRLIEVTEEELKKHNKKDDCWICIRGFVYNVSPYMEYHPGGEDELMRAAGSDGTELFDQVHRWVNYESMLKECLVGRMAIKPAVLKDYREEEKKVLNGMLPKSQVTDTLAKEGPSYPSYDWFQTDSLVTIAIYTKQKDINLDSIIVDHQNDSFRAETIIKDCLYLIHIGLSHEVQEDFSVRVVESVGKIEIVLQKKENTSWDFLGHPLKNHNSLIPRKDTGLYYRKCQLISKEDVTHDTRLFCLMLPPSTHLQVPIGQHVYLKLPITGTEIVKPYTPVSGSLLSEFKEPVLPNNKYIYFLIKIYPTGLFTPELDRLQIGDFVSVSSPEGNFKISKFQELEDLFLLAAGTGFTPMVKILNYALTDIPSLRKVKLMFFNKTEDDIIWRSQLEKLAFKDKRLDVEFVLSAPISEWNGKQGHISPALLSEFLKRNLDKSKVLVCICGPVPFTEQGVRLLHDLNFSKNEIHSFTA
UniProt P99999: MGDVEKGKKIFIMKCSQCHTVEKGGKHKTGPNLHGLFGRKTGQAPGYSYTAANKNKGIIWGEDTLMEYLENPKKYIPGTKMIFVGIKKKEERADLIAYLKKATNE
UniProt Q96C86: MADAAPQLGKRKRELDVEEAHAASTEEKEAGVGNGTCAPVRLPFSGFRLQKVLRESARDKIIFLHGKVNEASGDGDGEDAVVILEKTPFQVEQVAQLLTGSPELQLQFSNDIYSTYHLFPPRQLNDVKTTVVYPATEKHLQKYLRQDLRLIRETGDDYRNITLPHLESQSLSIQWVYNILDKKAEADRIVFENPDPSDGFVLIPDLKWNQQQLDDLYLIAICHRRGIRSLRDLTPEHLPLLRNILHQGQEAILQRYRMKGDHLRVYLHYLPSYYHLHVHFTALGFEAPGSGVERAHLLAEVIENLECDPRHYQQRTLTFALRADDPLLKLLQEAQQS
UniProt Q8N465: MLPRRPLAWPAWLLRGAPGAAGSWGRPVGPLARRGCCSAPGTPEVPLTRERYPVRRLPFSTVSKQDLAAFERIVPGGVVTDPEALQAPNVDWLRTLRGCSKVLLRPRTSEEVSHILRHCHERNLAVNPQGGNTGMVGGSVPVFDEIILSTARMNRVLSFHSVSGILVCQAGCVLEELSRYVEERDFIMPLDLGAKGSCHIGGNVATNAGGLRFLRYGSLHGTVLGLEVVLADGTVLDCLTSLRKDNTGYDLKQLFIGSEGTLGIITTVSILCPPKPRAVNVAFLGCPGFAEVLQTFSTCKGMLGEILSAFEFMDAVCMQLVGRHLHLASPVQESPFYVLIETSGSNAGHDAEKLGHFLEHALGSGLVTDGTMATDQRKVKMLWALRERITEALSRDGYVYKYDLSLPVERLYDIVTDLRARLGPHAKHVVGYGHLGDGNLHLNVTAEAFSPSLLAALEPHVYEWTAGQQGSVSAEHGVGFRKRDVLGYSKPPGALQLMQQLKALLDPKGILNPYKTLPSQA
UniProt Q6UX04: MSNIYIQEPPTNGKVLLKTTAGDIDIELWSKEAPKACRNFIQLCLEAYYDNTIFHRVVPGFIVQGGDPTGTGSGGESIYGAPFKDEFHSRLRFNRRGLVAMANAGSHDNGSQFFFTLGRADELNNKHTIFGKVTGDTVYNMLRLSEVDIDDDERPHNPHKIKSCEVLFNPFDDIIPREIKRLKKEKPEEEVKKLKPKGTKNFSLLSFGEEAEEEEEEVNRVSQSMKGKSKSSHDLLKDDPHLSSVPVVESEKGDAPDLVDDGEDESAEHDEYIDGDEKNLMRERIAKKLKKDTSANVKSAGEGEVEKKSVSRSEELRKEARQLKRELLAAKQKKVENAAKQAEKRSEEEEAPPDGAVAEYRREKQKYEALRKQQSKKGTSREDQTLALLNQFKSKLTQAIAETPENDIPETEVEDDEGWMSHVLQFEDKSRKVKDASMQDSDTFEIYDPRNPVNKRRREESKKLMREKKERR
UniProt P61803: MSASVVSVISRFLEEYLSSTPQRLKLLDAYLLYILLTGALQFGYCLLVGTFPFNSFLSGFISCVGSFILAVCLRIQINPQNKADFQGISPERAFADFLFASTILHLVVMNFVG
UniProt Q9UJU6: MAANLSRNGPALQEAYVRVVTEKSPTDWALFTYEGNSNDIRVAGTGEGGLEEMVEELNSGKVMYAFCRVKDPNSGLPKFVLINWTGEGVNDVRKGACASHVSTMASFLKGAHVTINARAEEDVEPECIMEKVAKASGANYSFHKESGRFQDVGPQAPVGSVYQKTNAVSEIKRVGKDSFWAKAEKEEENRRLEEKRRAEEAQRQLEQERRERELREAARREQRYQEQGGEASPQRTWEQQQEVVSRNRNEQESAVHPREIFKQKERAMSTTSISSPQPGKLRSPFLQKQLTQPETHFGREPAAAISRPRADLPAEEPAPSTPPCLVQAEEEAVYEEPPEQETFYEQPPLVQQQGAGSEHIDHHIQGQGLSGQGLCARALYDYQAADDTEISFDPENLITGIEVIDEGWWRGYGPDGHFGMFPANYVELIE
UniProt Q9NRF8: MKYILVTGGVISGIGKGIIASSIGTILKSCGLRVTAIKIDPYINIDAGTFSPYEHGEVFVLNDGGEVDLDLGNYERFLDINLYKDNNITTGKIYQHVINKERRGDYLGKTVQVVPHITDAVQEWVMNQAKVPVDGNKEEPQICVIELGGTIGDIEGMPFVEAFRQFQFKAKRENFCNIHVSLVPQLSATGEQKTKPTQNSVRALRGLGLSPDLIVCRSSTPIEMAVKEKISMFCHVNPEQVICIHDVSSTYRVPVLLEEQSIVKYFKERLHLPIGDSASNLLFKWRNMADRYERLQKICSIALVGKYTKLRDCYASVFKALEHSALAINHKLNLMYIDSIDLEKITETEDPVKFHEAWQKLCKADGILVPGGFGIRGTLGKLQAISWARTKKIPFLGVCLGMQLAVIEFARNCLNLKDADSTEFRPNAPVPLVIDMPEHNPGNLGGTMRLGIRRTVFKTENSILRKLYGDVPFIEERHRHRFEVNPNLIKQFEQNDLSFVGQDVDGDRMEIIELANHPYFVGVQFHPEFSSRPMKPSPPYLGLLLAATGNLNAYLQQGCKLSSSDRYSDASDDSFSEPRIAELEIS
UniProt Q9P013: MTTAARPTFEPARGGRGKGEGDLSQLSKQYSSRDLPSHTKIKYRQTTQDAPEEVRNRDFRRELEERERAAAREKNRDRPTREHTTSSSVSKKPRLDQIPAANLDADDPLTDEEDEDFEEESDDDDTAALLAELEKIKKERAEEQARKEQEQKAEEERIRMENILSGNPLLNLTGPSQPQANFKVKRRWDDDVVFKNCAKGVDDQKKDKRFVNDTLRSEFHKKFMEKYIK
UniProt Q9NTM9: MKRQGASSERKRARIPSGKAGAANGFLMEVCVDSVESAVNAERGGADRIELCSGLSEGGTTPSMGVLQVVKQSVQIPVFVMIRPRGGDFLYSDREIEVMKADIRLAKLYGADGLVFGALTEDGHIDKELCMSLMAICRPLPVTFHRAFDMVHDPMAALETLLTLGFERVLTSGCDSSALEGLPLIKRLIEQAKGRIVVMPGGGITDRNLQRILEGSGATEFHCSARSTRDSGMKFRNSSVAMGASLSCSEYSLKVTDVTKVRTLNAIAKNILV
UniProt Q9NV06: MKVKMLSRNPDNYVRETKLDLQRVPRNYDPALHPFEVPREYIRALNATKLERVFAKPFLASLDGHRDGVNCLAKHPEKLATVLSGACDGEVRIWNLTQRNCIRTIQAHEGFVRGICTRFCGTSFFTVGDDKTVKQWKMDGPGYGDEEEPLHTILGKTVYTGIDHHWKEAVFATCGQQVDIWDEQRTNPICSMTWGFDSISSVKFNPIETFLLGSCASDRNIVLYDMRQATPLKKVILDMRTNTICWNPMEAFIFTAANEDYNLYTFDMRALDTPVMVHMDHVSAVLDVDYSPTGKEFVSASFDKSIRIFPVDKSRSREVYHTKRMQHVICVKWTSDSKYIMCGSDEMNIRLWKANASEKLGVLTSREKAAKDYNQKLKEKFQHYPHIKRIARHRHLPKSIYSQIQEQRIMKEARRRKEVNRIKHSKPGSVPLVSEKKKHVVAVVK
UniProt P07711: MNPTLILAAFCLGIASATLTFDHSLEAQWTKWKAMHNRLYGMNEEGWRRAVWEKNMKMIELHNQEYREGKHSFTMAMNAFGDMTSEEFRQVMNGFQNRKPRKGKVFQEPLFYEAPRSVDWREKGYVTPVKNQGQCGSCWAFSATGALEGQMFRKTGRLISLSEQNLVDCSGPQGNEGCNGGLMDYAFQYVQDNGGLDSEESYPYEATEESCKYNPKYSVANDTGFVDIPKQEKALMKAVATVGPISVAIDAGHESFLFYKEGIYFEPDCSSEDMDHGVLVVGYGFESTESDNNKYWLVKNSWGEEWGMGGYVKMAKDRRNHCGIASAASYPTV
UniProt Q66K64, whole entry, looked up: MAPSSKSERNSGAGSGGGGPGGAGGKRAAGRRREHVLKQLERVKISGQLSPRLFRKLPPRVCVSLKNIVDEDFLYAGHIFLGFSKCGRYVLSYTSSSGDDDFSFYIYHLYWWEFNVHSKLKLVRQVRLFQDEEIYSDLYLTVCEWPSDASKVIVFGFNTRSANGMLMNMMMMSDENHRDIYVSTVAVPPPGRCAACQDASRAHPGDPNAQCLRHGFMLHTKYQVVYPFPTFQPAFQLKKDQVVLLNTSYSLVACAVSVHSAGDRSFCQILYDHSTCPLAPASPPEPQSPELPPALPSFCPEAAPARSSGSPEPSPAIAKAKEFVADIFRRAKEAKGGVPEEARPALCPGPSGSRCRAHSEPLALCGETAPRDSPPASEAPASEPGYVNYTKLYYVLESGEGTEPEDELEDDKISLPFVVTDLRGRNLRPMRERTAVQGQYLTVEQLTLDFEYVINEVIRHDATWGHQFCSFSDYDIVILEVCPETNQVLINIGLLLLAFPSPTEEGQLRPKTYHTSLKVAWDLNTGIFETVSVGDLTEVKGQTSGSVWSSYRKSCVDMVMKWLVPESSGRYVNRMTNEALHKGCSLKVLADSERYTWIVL
UniProt Q5TAQ9: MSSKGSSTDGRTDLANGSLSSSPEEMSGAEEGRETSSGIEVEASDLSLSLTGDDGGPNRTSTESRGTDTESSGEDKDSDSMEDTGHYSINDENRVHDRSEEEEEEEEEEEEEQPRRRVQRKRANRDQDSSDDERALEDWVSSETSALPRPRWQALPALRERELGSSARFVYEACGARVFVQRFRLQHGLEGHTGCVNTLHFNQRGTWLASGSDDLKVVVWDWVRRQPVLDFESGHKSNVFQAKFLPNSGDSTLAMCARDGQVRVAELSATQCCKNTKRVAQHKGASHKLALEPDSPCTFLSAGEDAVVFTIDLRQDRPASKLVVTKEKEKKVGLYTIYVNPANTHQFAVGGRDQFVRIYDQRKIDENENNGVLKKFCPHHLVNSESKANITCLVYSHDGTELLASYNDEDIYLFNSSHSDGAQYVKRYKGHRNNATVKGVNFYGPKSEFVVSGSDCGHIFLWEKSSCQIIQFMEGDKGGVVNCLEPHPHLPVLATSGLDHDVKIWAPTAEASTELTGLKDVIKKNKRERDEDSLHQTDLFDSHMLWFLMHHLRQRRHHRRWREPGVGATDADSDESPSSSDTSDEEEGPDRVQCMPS

volasertib = compound: CC[C@@H]1C(=O)N(C)c2cnc(Nc3ccc(C(=O)N[C@H]4CC[C@H](N5CCN(CC6CC6)CC5)CC4)cc3OC)nc2N1C(C)C [volasertib]
Procedure, shortened: as §1

[2] = compound: CC[C@H](C)N1C=C(C2=C(C=C(C=C21)C3=CN=C(C=C3)N4CCNCC4)C(=O)NCC5=C(C=C(NC5=O)C)C)C
Procedure, shortened: as §1

epoxomicin = compound: CC[C@H](C)[C@@H](C(=O)N[C@@H]([C@@H](C)O)C(=O)N[C@@H](CC(C)C)C(=O)[C@]1(CO1)C)NC(=O)[C@H]([C@@H](C)CC)N(C)C(=O)C [epoxomicin]
Procedure, shortened: as §1

[3] = compound: CCn1c(C(=O)N(C2CC2)C2CC2)cc2c3c(ncn3C)c(Nc3cc(C)n(C)n3)nc21
Procedure, shortened: as §1

[4] = compound: CCn1cc(-c2ccnc3[nH]c(-c4cccc(CN(C)C)c4)cc23)c(-c2ccc(NC(=O)N(C)C)cc2)n1
Procedure, shortened: as §1

[5] = compound: CN(C)CC(=O)Nc1ccc2[nH]c(=O)c3ccccc3c2c1
Procedure, shortened: as §1

rosiglitazone = compound: CN(CCOC1=CC=C(C=C1)C[C@H]2C(=O)NC(=O)S2)C3=CC=CC=N3 (racemic) [rosiglitazone]
Procedure, shortened: as §1

[6] = compound: CN1C2=C(C3=C1C(=O)N(N=C3)CC4=CC(=CC=C4)N)SC(=C2)S(=O)C
Procedure, shortened: as §1

[7] = compound: CN1CCC(CNc2ccc3ncc(-c4cccc(OC(F)(F)F)c4)n3n2)CC1
Procedure, shortened: as §1

Measured: log2 fold change

CSTF1 (UniProt Q05048)
inactive: [1] 0.079 | volasertib 0.051 | [2] -0.034 | epoxomicin -0.023 | [3] -0.017 | [4] 0.015 | [5] -0.021 | rosiglitazone 0.001 | [6] -0.057 | [7] 0.091

CTIF isoform 2 (UniProt O43310)
inactive: [1] 0.034 | volasertib -0.019 | [2] 0.062 | epoxomicin 0.041 | [3] -0.021 | [4] -0.023 | [5] -0.139 | rosiglitazone -0.006 | [6] -0.07 | [7] 0.098

CXorf38 (UniProt Q8TB03)
inactive: [1] -0.073 | volasertib -0.1 | [2] -0.032 | epoxomicin 0.065 | [3] 0.025 | [4] -0.069 | [5] -0.008 | rosiglitazone 0 | [6] -0.019 | [7] -0.066

DCTN3 (UniProt O75935)
inactive: [1] -0.022 | volasertib -0.119 | [2] 0.081 | epoxomicin 0.02 | [3] 0.042 | [4] -0.025 | [5] 0.053 | rosiglitazone 0.047 | [6] -0.024 | [7] -0.008

CYB5R2 (UniProt Q6BCY4)
inactive: [1] 0.049 | volasertib 0.114 | [2] -0.06 | epoxomicin 0.031 | [3] -0.021 | [4] 0.029 | [5] -0.035 | rosiglitazone 0 | [6] -0.014 | [7] -0.09

CTBP1 (UniProt Q13363)
inactive: [1] 0.086 | volasertib 0.056 | [2] -0.03 | epoxomicin -0.029 | [3] 0.026 | [4] -0.083 | [5] -0.016 | rosiglitazone -0.002 | [6] -0.068 | [7] 0.006

CYB5R4 (UniProt Q7L1T6)
inactive: [1] 0.047 | volasertib -0.047 | [2] 0.01 | epoxomicin -0.009 | [3] -0.065 | [4] 0 | [5] 0.001 | rosiglitazone 0.012 | [6] -0.038 | [7] -0.061

CYCS (UniProt P99999)
inactive: [1] 0.004 | volasertib 0.036 | [2] -0.068 | epoxomicin -0.028 | [3] 0.033 | [4] 0.005 | [5] -0.01 | rosiglitazone -0.013 | [6] -0.032 | [7] -0.041

DCPS (UniProt Q96C86)
inactive: [1] 0.03 | volasertib 0.078 | [2] -0.008 | epoxomicin 0.012 | [3] 0.015 | [4] -0.044 | [5] -0.041 | rosiglitazone 0.008 | [6] -0.039 | [7] 0.022

CTNNA1 isoform 2 (UniProt P35221)
inactive: [1] 0.014 | volasertib -0.009 | [2] 0.02 | epoxomicin 0.125 | [3] -0.021 | [4] -0.034 | [5] 0.003 | rosiglitazone 0.02 | [6] -0.057 | [7] 0.003

D2HGDH (UniProt Q8N465)
inactive: [1] 0.061 | volasertib -0.014 | [2] 0.061 | epoxomicin 0.048 | [3] -0.014 | [4] -0.143 | [5] 0.062 | rosiglitazone 0.126 | [6] 0.035 | [7] -0.087

CUL2 isoform 2 (UniProt Q13617)
inactive: [1] -0.023 | volasertib -0.055 | [2] 0.043 | epoxomicin 0.018 | [3] -0.012 | [4] -0.07 | [5] 0.005 | rosiglitazone 0.023 | [6] -0.109 | [7] -0.065

CWC27 (UniProt Q6UX04)
active: volasertib -0.421
inactive: [1] -0.103 | [2] 0.086 | epoxomicin 0.094 | [4] 0.117 | [5] 0.066 | [6] -0.011 | [7] -0.091

CTU1 (UniProt Q7Z7A3)
active: [7] -0.233
inactive: [1] -0.052 | volasertib -0.117 | [2] 0.026 | epoxomicin 0.045 | [4] -0.057 | [5] 0.065 | [6] -0.098

CUSTOS (UniProt Q96C57)
inactive: [1] 0.032 | volasertib 0.021 | [2] -0.007 | epoxomicin -0.034 | [3] 0.014 | [4] 0.031 | [5] -0.066 | rosiglitazone -0.006 | [6] -0.034 | [7] 0.001

CT45A5 (UniProt P0DMU8)
inactive: [1] 0.108 | volasertib 0.201 | [2] 0.013 | epoxomicin -0.088 | [3] -0.045 | [4] 0.12 | [5] -0.097 | rosiglitazone -0.085 | [6] 0.128 | [7] 0.081

CYC1 (UniProt P08574)
inactive: [1] -0.008 | volasertib -0.02 | [2] 0.014 | epoxomicin -0.003 | [3] 0 | [4] 0.011 | [5] -0.031 | rosiglitazone -0.005 | [6] -0.036 | [7] 0.012

CYFIP2 (UniProt Q96F07)
inactive: [1] 0.038 | volasertib -0.177 | [2] 0.046 | epoxomicin -0.009 | [3] -0.008 | [4] -0.007 | [5] 0.007 | rosiglitazone 0.018 | [6] -0.064 | [7] -0.017

DAD1 (UniProt P61803)
inactive: [1] 0.066 | volasertib -0.08 | [2] -0.026 | epoxomicin 0.044 | [3] -0.028 | [5] 0.093 | rosiglitazone 0.086 | [6] 0.102

CTBP2 isoform 2 (UniProt P56545)
inactive: [1] 0.077 | volasertib 0.051 | [2] -0.03 | epoxomicin -0.003 | [3] 0.011 | [4] -0.048 | [5] 0.02 | rosiglitazone 0.001 | [6] -0.054 | [7] 0.016

DBNL isoform 3 (UniProt Q9UJU6)
active: volasertib -0.367
inactive: [1] -0.143 | [2] 0.031 | epoxomicin 0.012 | [4] 0.007 | [5] 0.011 | [6] -0.075 | [7] -0.109

CTPS2 (UniProt Q9NRF8)
inactive: [1] 0.059 | volasertib 0.018 | [2] -0.028 | epoxomicin -0.034 | [3] 0.003 | [4] -0.039 | [5] -0.007 | rosiglitazone 0.02 | [6] -0.049 | [7] -0.012

CWC15 (UniProt Q9P013)
inactive: [1] 0.056 | volasertib 0.13 | [2] -0.123 | epoxomicin 0.014 | [3] 0.016 | [4] 0.018 | [5] -0.043 | rosiglitazone -0.008 | [6] 0.009 | [7] -0.041

CUTC (UniProt Q9NTM9)
inactive: [1] 0.027 | volasertib 0.013 | [2] -0.026 | epoxomicin 0.023 | [3] 0.001 | [4] -0.029 | [5] -0.016 | rosiglitazone 0.026 | [6] -0.039 | [7] 0.044

DCAF13 (UniProt Q9NV06)
inactive: [1] 0.134 | volasertib 0.26 | [2] 0.03 | epoxomicin -0.24 | [4] 0.132 | [5] -0.166 | [6] 0.195 | [7] 0.136

CYHR1 (UniProt E9PJD7)
inactive: [1] 0.058 | volasertib -0.022 | [2] -0.005 | epoxomicin -0.007 | [3] 0.013 | [4] -0.044 | [5] 0.071 | rosiglitazone -0.012 | [6] 0.011 | [7] 0.002

CSTF2T (UniProt Q9H0L4)
inactive: [1] 0.095 | volasertib 0.048 | [2] -0.034 | epoxomicin 0.016 | [3] -0.031 | [4] 0.04 | [5] -0.003 | rosiglitazone 0.018 | [6] 0.002 | [7] 0.114

CTSL (UniProt P07711)
inactive: [1] -0.124 | volasertib -0.247 | [2] -0.045 | epoxomicin 0.017 | [4] 0.196 | [5] -0.074 | [6] 0.019 | [7] -0.306

Two entries drawn at random from the list so far, as already listed:
DCAF13 (UniProt Q9NV06)
inactive: [1] 0.134 | volasertib 0.26 | [2] 0.03 | epoxomicin -0.24 | [4] 0.132 | [5] -0.166 | [6] 0.195 | [7] 0.136

CTSL (UniProt P07711)
inactive: [1] -0.124 | volasertib -0.247 | [2] -0.045 | epoxomicin 0.017 | [4] 0.196 | [5] -0.074 | [6] 0.019 | [7] -0.306

Remaining list, next part

CTNNA2 (UniProt P26232)
inactive: [1] 0.035 | volasertib -0.034 | [2] 0.05 | epoxomicin 0.118 | [3] 0.012 | [4] -0.037 | [5] -0.01 | rosiglitazone 0.003 | [6] -0.039 | [7] -0.013

DCAF15 (UniProt Q66K64)
inactive: [1] 0.01 | volasertib -0.03 | [2] 0.204 | epoxomicin 0.222 | [3] -0.097 | [5] 0.127 | rosiglitazone 0.039 | [6] 0.027

DCAF8 (UniProt Q5TAQ9)
inactive: [1] -0.014 | volasertib -0.039 | [2] -0.013 | epoxomicin -0.046 | [3] 0.014 | [4] -0.01 | [5] 0.061 | rosiglitazone 0.027 | [6] 0.045 | [7] 0.051
